# Reference: publication PMC7819943, “Rice protein-binding microarrays: a tool to detect cis-acting elements near promoter regions in rice”
# This is one part of the list.
# Molecular target: T1, OsSMF1 (Oryza sativa, UniProt Q6ZLB0 1-436)
# T1 sequence: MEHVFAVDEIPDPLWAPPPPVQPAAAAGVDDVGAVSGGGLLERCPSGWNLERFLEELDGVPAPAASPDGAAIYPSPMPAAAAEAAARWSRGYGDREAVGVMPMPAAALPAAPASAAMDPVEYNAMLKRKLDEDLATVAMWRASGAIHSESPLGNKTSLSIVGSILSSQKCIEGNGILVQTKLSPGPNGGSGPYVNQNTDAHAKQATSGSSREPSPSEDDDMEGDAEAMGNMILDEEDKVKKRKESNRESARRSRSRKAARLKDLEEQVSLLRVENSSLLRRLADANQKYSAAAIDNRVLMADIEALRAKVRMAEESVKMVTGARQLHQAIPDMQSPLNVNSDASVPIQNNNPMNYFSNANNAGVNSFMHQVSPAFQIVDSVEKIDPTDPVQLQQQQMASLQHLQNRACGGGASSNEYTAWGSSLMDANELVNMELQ
# Experiment: protein-binding microarray (RPBM); PBS, 2% BSA, 51.3 ng/ul salmon testes DNA, 50 uM zinc acetate, 200 nM TF, 25 C, 1 h; high values mean tight binding
# Conditions: protein: recombinant; tags: N-terminal polyhistidine and DsRed monomer fusion (pET32a); chain copies: 2; label: CyDye5-dUTP incorporated in the synthesized complementary strand; 3' TTTTT single-stranded linker to array surface; dsDNA, one strand shown
# Procedure, shortened: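 Polyhistidine-tagged DsRed fusions of transcription factors, joined at the N-terminus, were expressed in E. coli BL21-CodonPlus and isolated on Ni–NTA. They were incubated at 200 nM for 1 h at 25 °C on a custom Agilent array, double-stranded and BSA-blocked, in PBS with 2% BSA, salmon testes DNA and 50 µM zinc acetate. The binding signal is per-feature fluorescence intensity (arbitrary units) read on an Axon 4000B scanner after washing.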
row,Sequence,binding signal
1,GGCCCATATGTTGGCGGACGGCCTCGCGCAGGTCGCGACACGGAGTCACCTAGTGCAG,3150 fluorescence intensity (a.u.)
2,CCTCCTCAACGCCGCCACCTCATCCGTCCATACAGCGCCGCGGAGTCACCTAGTGCAG,7110 fluorescence intensity (a.u.)
3,TAAAATTAGATGACGCACATTGACTAATATAACAATTTGGCGGAGTCACCTAGTGCAG,3800 fluorescence intensity (a.u.)
4,TGGTCACTGCAGCAGGTTCAGGACAAAGCAACCTGTTTCTCGGAGTCACCTAGTGCAG,3600 fluorescence intensity (a.u.)
5,CATGTCCGCCTACATCCTCGTTCTCGTCATCTTGGTCTGCCGGAGTCACCTAGTGCAG,3310 fluorescence intensity (a.u.)
6,AAAGGATAGCGACGTGACGTGACGCACGCACGCCGCCAGCCGGAGTCACCTAGTGCAG,8750 fluorescence intensity (a.u.)
7,AGCTATGTTTTGTATACTGATGAGTAAGCTGATTGCGATACGGAGTCACCTAGTGCAG,3560 fluorescence intensity (a.u.)
8,AATCACACGAGAGAGACACTGAAGTGACACGCTGGCAGGTCGGAGTCACCTAGTGCAG,11200 fluorescence intensity (a.u.)
9,GGCGGCGGCTGGCGAGCTCCCGCTTCCCTACCTGCTTCCCCGGAGTCACCTAGTGCAG,3650 fluorescence intensity (a.u.)
10,CGGGGCTTGCAAGGCACGCGCTCATGTCGTCAGATCGGCGCGGAGTCACCTAGTGCAG,3410 fluorescence intensity (a.u.)
11,TTCTAGCCAGGCCGAATGGCCGAGCGGATGACGCGGCCACCGGAGTCACCTAGTGCAG,8220 fluorescence intensity (a.u.)
12,GAGCCCTTAATCCACTGTTCTAGTGACATAATCCACTGTTCGGAGTCACCTAGTGCAG,3320 fluorescence intensity (a.u.)
13,CGTTTGGCATCTCCAAAACCGTGACGCTCTCTCCACACGCCGGAGTCACCTAGTGCAG,3480 fluorescence intensity (a.u.)
14,GCAGAGGTGCTGGTGATGATGTCAGTGACAATAATCCATCCGGAGTCACCTAGTGCAG,6070 fluorescence intensity (a.u.)
15,AATCTAATAATCCCAAGATTCATAAAAGTAGATTTGACGTCGGAGTCACCTAGTGCAG,3540 fluorescence intensity (a.u.)
16,TGAAGGTTTCTCCGAGGAGTAGGCTTTGTCCGTGCCGTCGCGGAGTCACCTAGTGCAG,19600 fluorescence intensity (a.u.)
17,TGCCCGGCCACCGTCTCCTGCGCCGACGTCCTCGCCCTCACGGAGTCACCTAGTGCAG,3760 fluorescence intensity (a.u.)
18,TATTAGTAGATACCTTCTTCCGGAGATGGCGGACGTGGCTCGGAGTCACCTAGTGCAG,7320 fluorescence intensity (a.u.)
19,CGCTGCCCCAATGCCACTGGACGGTGTCACTCCTGTTGCTCGGAGTCACCTAGTGCAG,3970 fluorescence intensity (a.u.)
20,TTCAGCTCGGCCGCCCTCCCCTTGTCCTTGCGGCACAGCGCGGAGTCACCTAGTGCAG,3250 fluorescence intensity (a.u.)
21,TCCGACGGCCGCCTCATCATCGACTTCATCGGTACGCCTCCGGAGTCACCTAGTGCAG,3770 fluorescence intensity (a.u.)
22,TGCTGAATCGAATGCTTCGATCATCTGAGTAGGCACCCATCGGAGTCACCTAGTGCAG,4230 fluorescence intensity (a.u.)
23,GCCAATCCAACGACACTCCCGTCACCGCCGACAGCGGCATCGGAGTCACCTAGTGCAG,5150 fluorescence intensity (a.u.)

# Two entries drawn at random from the list so far, as already listed:
row,Sequence,binding signal
16,TGAAGGTTTCTCCGAGGAGTAGGCTTTGTCCGTGCCGTCGCGGAGTCACCTAGTGCAG,19600 fluorescence intensity (a.u.)
5,CATGTCCGCCTACATCCTCGTTCTCGTCATCTTGGTCTGCCGGAGTCACCTAGTGCAG,3310 fluorescence intensity (a.u.)
